Laboratory results: PubChem BioAssay AID720505 (Drosophila RNAi Screening Center, 2013)
The deposit covers about 20,000 reagents; this is a random part of those with a known target gene and a result. Over the whole deposit, about 2,100 (10%) are marked active. 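Raw plate signals without normalisation; calls rest on control-based scores that were not deposited; replicate 2 separates called from uncalled poorly.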 Names joined by + are all predicted targets of the reagent. The record does not give: the amount of reagent, the time to read-out.

Assay: 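Knock-downs that reduce calcium influx once internal stores are emptied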 (primary screen)
Cells: Drosophila S2R+ cells
Reagent: long dsRNA against Drosophila genes
Treatment: thapsigargin (2 µM) in calcium-free buffer to empty internal stores, then 2 mM calcium added back
Measured: 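Fluo-4 signal in 384-well plates read on a FLIPR after thapsigargin (2 µM, calcium-free) store depletion and 2 mM calcium add-back; unnormalised mean endpoint per well; screen run twice, selected wells retested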
Direction: calcium signal and retest calcium signal: higher = more calcium entry after store depletion
Rule for the call: 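About 1500 genes called as lowering calcium entry, by varying amounts, judged against per-plate control wells with STIM1 as positive and Rho1 as negative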
Meaning of the calls: active = called as lowering calcium entry; inactive = not called

gene knocked down	amplicon	calcium signal, replicate 1	calcium signal, replicate 2	retest calcium signal, replicate 1	retest calcium signal, replicate 2	call
apolpp (apolipophorin)	DRSC17216	137	182			inactive
Hrd3 (HMG-coA reductase degradation 3)	DRSC14156	165	282			inactive
CG4020	DRSC18337	246	146			inactive
Ir87a (Ionotropic receptor 87a)	DRSC14836	79.3	202			inactive
Hmt4-20 (Histone methyltransferase 4-20)	DRSC18482	101	103			inactive
CG14961	DRSC08420	71.7	112			inactive
CG4000	DRSC15535	123	177	9795	201	inactive
CG4000	DRSC21547	253	117			inactive
CG8833	DRSC11050	76.2	83.6			inactive
CG42541	DRSC17973	154	119			inactive
CG42541	DRSC18119	61.1	101			active
CG42541	DRSC18120	169	113			inactive
CR9337 (pseudo)	DRSC03212	91.3	81.4			inactive
Vajk2	DRSC02540	118	119			inactive
CG34376	DRSC14695	175	141			inactive
CG34376	DRSC14696	131	157			inactive
CG34376	DRSC14701	179	164			inactive
CG8541	DRSC10989	122	95.9			inactive
ninaG	DRSC16102	161	118			inactive
mTTF (mitochondrial transcription termination factor)	DRSC01909	123	107			inactive
CG14647	DRSC12233	135	76.5			inactive
CG14647	DRSC22497	95	168			inactive
ced-6	DRSC07591	61.1	61.7	161	126	active
betaNACtes5 (Nascent-associated complex beta-subunit-like, testis 5)	DRSC19100	107	120			inactive
CG6788	DRSC20007	101	110			inactive
CG31988	DRSC22491	84.2	182			inactive
peng (penguin)	DRSC20583	96.5	104			inactive
Lnk	DRSC16729	78.5	138			inactive
Buffy	DRSC05957	124	231			inactive
PGRP-LD + Cralbp + Pmi	DRSC09743	127	95.4			inactive
Gr22b (Gustatory receptor 22b)	DRSC20911	99.5	9321			inactive
Gat (GABA transporter)	DRSC17144	122	151			inactive
CG14043	DRSC02368	140	87.6			inactive
CG14329	DRSC14808	110	130			inactive
Mdr50 (Multi drug resistance 50)	DRSC07467	116	168			inactive
Hsp67Ba (Heat shock gene 67Ba)	DRSC11191	63	107			inactive
Dmtn (Dementin)	DRSC12513	105	87.5			inactive
in (inturned)	DRSC11888	97.3	106			active
CG16753	DRSC08489	74.5	112			active
ChLD3 (Chitin and LDLR binding deacetylase 3)	DRSC02640	57.6	83.3			active
Vti1a (Vesicle transport through interaction with t-SNAREs 1a)	DRSC08563	73.3	125			active
CG7191	DRSC03022	80.5	86.8			active
Tango9 (Transport and Golgi organization 9)	DRSC14173	116	92			inactive
Elo68beta (Elongase 68beta)	DRSC09860	98.8	126			inactive
CG7017	DRSC10762	68.3	101			active
CG14506	DRSC14858	111	129			inactive
Dnaaf6 (Dynein axonemal assembly factor 6)	DRSC10473	84.9	135			inactive
Atat (alpha-tubulin acetylase)	DRSC10392	87.3	155			inactive
ppk21 (pickpocket 21)	DRSC14466	122	108			inactive
Nep3 (Neprilysin 3)	DRSC20685	75.6	144			active
Prosbeta5R2 (Proteasome beta5 subunit-related 2)	DRSC01617	210	111			inactive
Pgant5 (Polypeptide N-Acetylgalactosaminyltransferase 5)	DRSC03149	94.4	110			inactive
Hex-t1 (Hexokinase testis 1)	DRSC16701	251	147			inactive
Hey (Hairy/E(spl)-related with YRPW motif)	DRSC07440	109	78.6			inactive
Hey (Hairy/E(spl)-related with YRPW motif)	DRSC23030	138	205			inactive
Mhc (Myosin heavy chain)	DRSC03367	66	107			active
CG13313	DRSC09984	89.9	80.3			inactive
CG13510	DRSC04152	96	153			inactive
Grip163	DRSC10538	54.6	95			active
CG15144	DRSC02445	128	110			inactive
CG13442	DRSC06402	85.1	72.1			inactive
CG14795	DRSC18513	92.5	129			inactive
CG4842	DRSC10453	107	172			inactive
PsGEF (Protostome-specific GEF)	DRSC18596	69.5	91.2			inactive
PsGEF (Protostome-specific GEF)	DRSC18600	71.7	107			inactive
PsGEF (Protostome-specific GEF)	DRSC18601	62.9	104			active
CG13404	DRSC19536	117	113			inactive
CG10597	DRSC19357	64.2	103	7394	188	active
CG13965	DRSC02307	158	93.5			inactive
caly (calypso)	DRSC07182	64	118			active
CG42699	DRSC18076	128	109			inactive
CG42699	DRSC18341	208	115			inactive
PolQ (DNA polymerase theta)	DRSC17006	144	73.4			inactive
CG7213	DRSC10787	113	66.4			inactive
Not3 (CCR4-NOT transcription complex subunit 3)	DRSC04908	124	89.3			inactive
Pms2	DRSC07511	97.4	118			inactive
Pi4KIIIalpha (Phosphatidylinositol 4-kinase III alpha)	DRSC18655	84.2	127			inactive
CG11590	DRSC19411	75.1	127			inactive
CG30412	DRSC04564	61.8	180	98.7	102	inactive
CG14563	DRSC11724	124	176			inactive
eIF2Bgamma (eukaryotic translation initiation factor 2B subunit gamma)	DRSC07100	106	123			inactive
Hsp27 (Heat shock protein 27)	DRSC11190	86.4	107			inactive
kune (kune-kune)	DRSC04860	169	150			inactive
